PubChem BioAssay AID1508588 – Peter MacCallum Cancer Centre, 2020

- Screen: 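Which gene losses make BRAF-mutant melanoma cells more responsive to vemurafenib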 (primary screen)
- Cell system: human WM266.4 melanoma cells (BRAF V600 mutant)
- Reagents: siRNA pool against human genes, 40 nM
- Timing: 96 h from transfection to read-out
- Conditions: vemurafenib 300 nM (about IC25), added 48 h after transfection, for 48 h; comparison arm got DMSO vehicle only
- Measured: 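Cell gain (DAPI nuclei at end minus before drug, mean of two replicates) and medium lactate by absorbance per cell, both as ratio to non-targeting siRNA, also grouped into fold-change classes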
- Reading the numbers: cell gain with vemurafenib: higher = more cell gain than with non-targeting siRNA; lactate per cell with vemurafenib: higher = more lactate made per cell
- Rule for the call: 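Enhancement is called by pairing each knock-down's vehicle-arm and drug-arm fold-change classes for viability or glycolysis; which class combinations qualify is not given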
- Meaning of the calls: active = enhances vemurafenib effect; inactive = no enhancement seen
Here is one part, drawn at random, of about 18,000 deposited reagents. 790 of all reagents (4.4%) were called active. 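Calls rest on a combination of fold-change classes in drug and vehicle arms, not all shown here.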

no.	target	cell gain with vemurafenib	lactate per cell with vemurafenib	Outcome
1	ASB16-AS1	0.8	1.48	inactive
2	SLC5A1	0.12	1.21	inactive
3	DTWD2	0.89	0.7	inactive
4	IZUMO2	0.63	0.96	inactive
5	PLSCR2	0.49	1.22	inactive
6	TRAPPC6A	0.88	0.6	inactive
7	ATP6V0D2	0.71	0.7	inactive
8	ZNF630	-0.12	-0.06	active
9	SLC9A9	0.73	0.92	inactive
10	ECHDC3	0.71	0.91	inactive
11	PRXL2C	0.2	0.47	active
12	RSPH10B	0.36	1.09	inactive
13	GPR6	0.62	0.87	inactive
14	PIERCE1	0.25	1.8	inactive
15	FBXO45	0.72	1	inactive
16	OR5B12	1.18	0.46	inactive
17	MTX3	0.84	1.12	inactive
18	BORCS6	-0.1	3.29	inactive
19	CDK15	0.89	0.81	inactive
20	KLKB1	0.69	0.78	inactive
21	DHFR2	0.51	0.98	inactive
22	DTX4	1.08	0.71	inactive
23	SRI	0.64	0.82	inactive
24	KRTAP10-11	0.79	0.56	inactive
25	NDUFAB1	0.97	2	inactive
26	YTHDF3	0.61	0.63	inactive
27	ZNF91	0.63	0.47	active
28	THAP4	0.37	0.8	inactive
29	PSTPIP2	0.47	1.23	inactive
30	POLL	0.85	1.32	inactive
31	ZNF200	0.91	1.08	inactive
32	REPS2	0.69	0.7	inactive
33	SH2D3C	-0.13	5.04	inactive
34	ITGB1BP2	0.78	0.82	inactive
35	HDX	0.61	0.85	inactive
36	DMRTA1	0.05	0.76	inactive
37	USH1G	0.52	1.6	inactive
38	CYP4A22	0.74	0.79	inactive
39	SCGB1C1	0.47	0.67	inactive
40	NEU4	0.66	0.53	inactive
41	SCN7A	0.49	0.98	inactive
42	TGM3	0.48	0.68	inactive
43	TGFBRAP1	1.08	1.01	inactive
44	GCGR	0.16	0.77	inactive
45	CCT6B	0.89	1.32	inactive
46	PTOV1	0.68	1.18	inactive
47	GPA33	0.77	0.54	inactive
48	ATOSB	0.36	1.4	inactive
49	TAF13	1.05	0.41	inactive
50	VPS33A	0.07	1.83	inactive
51	ULK1	0.66	0.76	inactive
52	TOM1L2	0.83	0.93	inactive
53	COL8A2	0.3	0.87	inactive
54	H2BC13	0.59	1.15	inactive
55	RXFP4	1.2	0.92	inactive
56	ARHGAP32	0.46	0.82	inactive
57	LNP1	0.66	0.75	inactive

Part of the list above, reformatted.
{"target": "SLC9A9", "cell gain with vemurafenib": 0.73, "lactate per cell with vemurafenib": 0.92, "Outcome": "inactive"}
{"target": "ECHDC3", "cell gain with vemurafenib": 0.71, "lactate per cell with vemurafenib": 0.91, "Outcome": "inactive"}
{"target": "PRXL2C", "cell gain with vemurafenib": 0.2, "lactate per cell with vemurafenib": 0.47, "Outcome": "active"}
{"target": "RSPH10B", "cell gain with vemurafenib": 0.36, "lactate per cell with vemurafenib": 1.09, "Outcome": "inactive"}
{"target": "GPR6", "cell gain with vemurafenib": 0.62, "lactate per cell with vemurafenib": 0.87, "Outcome": "inactive"}
{"target": "PIERCE1", "cell gain with vemurafenib": 0.25, "lactate per cell with vemurafenib": 1.8, "Outcome": "inactive"}
{"target": "FBXO45", "cell gain with vemurafenib": 0.72, "lactate per cell with vemurafenib": 1, "Outcome": "inactive"}
{"target": "OR5B12", "cell gain with vemurafenib": 1.18, "lactate per cell with vemurafenib": 0.46, "Outcome": "inactive"}
{"target": "MTX3", "cell gain with vemurafenib": 0.84, "lactate per cell with vemurafenib": 1.12, "Outcome": "inactive"}
